# Values joined by “and” are separate entries in the source; they are usually repeats but may differ in a detail not shown here. Equal values may be shown once. In all, about 59,000 compounds went through this assay and about 6,500 (11%) were called active. Inconclusive means that the source gave no clear call. Such entries were picked first, then a sample of the others. Cut-off read from the data, not from the text of the source: active = max dye-equivalent concentration above about 10 nM; inconclusive = mostly about 1.1 nM to 9.6 nM; inactive = weaker than that.
# Experiment: qHTS Assay for Spectroscopic Profiling in A350 Spectral Region
# Details: Compound autofluorescence, 340/450 nm, Alexa 350 dye-equivalents; hits give high values
row,SMILES,max dye-equivalent concentration
1,OC(CN1CCCCC1)Cn1c(C(F)(F)F)nc2ccccc21 (stereo not drawn),inconclusive: 4.1e-09 M
2,FC(F)(F)c1ccc(N2CCN(c3cc(-c4ccccc4)nc4ncnn34)CC2)nc1,inconclusive: 6.4e-09 M
3,CN(C)c1ncc2nc(-c3ccc(Cl)cc3)c(=O)n(C[C@H]3CCCO3)c2n1,inconclusive: 6.6e-09 M
4,OCCN(CCO)c1ncnc2c1sc1nc(N3CCOCC3)c3c(c12)CCCC3,inconclusive: 6.9e-09 M
5,Cc1cc(N)c(-n2cc3c(=O)n(C)c(=O)n(C)c3c2)cc1C,active: 4.8e-08 M
6,O=C(CCCN1C(=O)c2ccccc2C1=O)Nc1c2c(nc3c1CCC3)CCC2,inconclusive: 7e-09 M
7,Cc1ccc2cc(C(c3nnnn3C3CCCC3)N3CCOCC3)c(=O)[nH]c2c1C (stereo not drawn),inconclusive: 1e-08 M
8,Cn1c(SCc2ccccc2Cl)nnc1-c1cnccn1,active: 7.6e-08 M
9,COc1ccc2[nH]cc(CCNc3cc(-c4cccc(C#N)c4)ncn3)c2c1,inconclusive: 9.8e-09 M
10,COC(=O)c1ccc(C2CC(=O)Nc3cc(OC)c(OC)cc32)cc1 (stereo not drawn),inactive
11,O=C1CC(Sc2nnc(-c3ccccc3O)o2)C(=O)N1c1ccccc1 (stereo not drawn),inactive
12,CCN(CC)c1nc2cc(OC)ccc2cc1C#N,active: 1.1e-07 M
13,Cc1cc2ncn(C(=O)c3ccc4c(c3)OCO4)c2cc1C,inconclusive: 7e-09 M
14,Cc1noc(/C=C/c2ccco2)c1S(=O)(=O)N1CCC(C(=O)N(C)Cc2ccccc2)CC1,inconclusive: 3.8e-09 M
15,Cc1nc2sccn2c1P(c1c(C)nc2sccn12)c1c(C)nc2sccn12,inactive
16,O=C(Nc1sc2c(c1C(=O)NCc1cccnc1)CCCC2)c1ccco1,active: 1.1e-07 M
17,COc1cccc(Cn2c(=O)c(-c3ccccc3)nc3cncnc32)c1,inactive
18,CC(C)(C)CC(=O)Nc1nnc(-c2cccs2)s1,inconclusive: 8.3e-09 M
19,CCOC(=O)C1(Cc2ccc(O)cc2)NC(c2ccccc2F)C2C(=O)N(C)C(=O)C21 (stereo not drawn),inactive
20,COc1ccc(C(=O)Nc2ccc(S(=O)(=O)Nc3onc(C)c3C)cc2)cc1,inactive
21,CCOC(=O)c1cc2c(=O)n3cccc(C)c3nc2n(CCOC)c1=NC(=O)c1ccncc1,active: 5.1e-08 M
22,COc1ccccc1CN1CCCC2(CCN(C(=O)c3cccn3C)CC2)C1,inactive
23,Cn1nc(CC(=O)Nc2ccc(N3CCN(C(=O)OC(C)(C)C)CC3)cc2)c2ccccc2c1=O,inconclusive: 1.1e-09 M
24,O=C(NC1(C(F)(F)F)N=C2SCCN2C1=O)C1CCCCC1 (stereo not drawn),inactive

row,SMILES,max dye-equivalent concentration
1,Cn1c(=O)[nH]c(=O)c2c1nc(Br)n2CCCO,inconclusive: 1.3e-09 M
2,CCN(CC)CCNC(=O)CCn1c(=S)[nH]c2cc3c(cc2c1=O)OCO3,inconclusive: 4.5e-09 M
3,Cc1cc2c(cc1C)NC(c1cccnc1)C1=C(CC(C)(C)CC1=O)N2 (stereo not drawn),inconclusive: 1.4e-09 M
4,CC(=O)C1=C(O)C(=O)N(CCN2CCOCC2)C1c1ccccc1 (stereo not drawn),inconclusive: 3.4e-09 M
5,CN1CCN(CCC=C2c3ccccc3Sc3ccc(S(=O)(=O)N(C)C)cc32)CC1,inconclusive: 2.7e-09 M
6,CCN(CC)c1ccc(-c2nc3cnccc3n2C)cc1,active: 5.2e-08 M
7,O=c1nc2s/c(=C\c3ccco3)c(=O)n2nc1Cc1ccc(F)cc1,inactive
8,CC1(C)CC(=O)CC(=Nc2ccc(C(=O)O)cc2)C1,inconclusive: 4.2e-09 M
9,Cc1cc(OCc2nn[nH]n2)c2c(-c3ccccc3)cc(=O)oc2c1,active: 1.6e-08 M
10,CC(=O)NCCNc1nc(-c2cccc(C#N)c2)nc2ccccc12,inconclusive: 1.6e-09 M
11,CC1(C)Cc2nc(N3CCOCC3)c(C#N)cc2CO1,active: 4.8e-07 M
12,O=C(Nc1cnc2ccccc2c1)N1CCOCC1,inconclusive: 5.6e-09 M
13,NC(=Nc1ccccc1)NC(=O)c1nc(Cl)c(N)nc1N,active: 3.9e-07 M
14,C[C@H](NCCc1ccc(O)cc1)[C@@H](O)c1ccc(O)cc1,inactive
15,O=C(O)CC(CC(=O)O)C(=O)O,inactive
16,O=C(COc1ccc2ccccc2c1Br)N1CCOCC1,inconclusive: 2.6e-09 M
17,Nn1c(SCC(=O)Nc2ccc3c(c2)OCCO3)nnc1C(F)(F)F,inconclusive: 1.1e-09 M
18,COCCN(CCOC)c1cc(C)c(C#N)c2nc3ccccc3n12,active: 9e-07 M
19,N#Cc1c(N2CCCC2)nc(N)c2c(N)nc(N3CCCC3)cc12,active: 6.9e-08 M
20,CC(=O)Nc1cc2nn(-c3ccccc3)nc2cc1Cl,active: 5e-08 M
21,CCN1C(=O)/C(=C/N(C)C)c2ccccc21,inconclusive: 3.1e-09 M
22,COC(=O)C1=CNC=C(C(=O)OC)C1c1ccc(Cl)cc1,active: 6.5e-06 M
23,N/C(CCCN1CCCCC1)=N/O,inactive
24,COc1ccccc1CN1CC2(CCN(S(=O)(=O)c3ccccc3)CC2)C1,inactive

row,SMILES,max dye-equivalent concentration
1,CCC(C(=O)N1CCN(S(C)(=O)=O)CC1)c1ccccc1 (stereo not drawn),inactive
2,COC(=O)Cn1cnc2sc(C)c(S(=O)(=O)N3CCC(C)CC3)c2c1=O,inconclusive: 1.1e-09 M
3,Cc1noc(C)c1COc1ccc(C(=O)OCC(=O)c2ccc3c(c2)OCCO3)cc1,inactive
4,CC1CCC/C(=C\Nc2ccc(O)cc2)C1=O (stereo not drawn),inconclusive: 1.1e-09 M
5,CCn1c(C)cc2c(c1=O)C(c1ccccc1Br)C(C#N)=C(N)O2 (stereo not drawn),inconclusive: 5e-09 M
6,N#C[C@H](c1ccccc1)N1CCCN([C@@H](C#N)c2ccccc2)C1c1ccccc1O (stereo partly drawn),inactive
7,O=c1nc(-c2ccccc2)cn[nH]1,inconclusive: 1.4e-09 M
8,COC(=O)c1ccccc1NC(=O)c1noc2c1CCC2,inactive
9,CCn1c(NC(=O)c2cccs2)nc2ccccc21,inconclusive: 3.4e-09 M
10,CCOc1ccc(-c2nc(C#N)c(N3CCN(C)CC3)o2)cc1,inconclusive: 3e-09 M
11,COC(=O)C1C(=O)C2=C(CC1C)NC(C)=C(C(=O)OCCOc1ccccc1)C2c1ccc(C)o1 (stereo not drawn),inconclusive: 5.6e-09 M
12,CCOc1ccc(C2c3c(oc4ccccc4c3=O)C(=O)N2CCCN2CCOCC2)cc1 (stereo not drawn),inconclusive: 1.6e-09 M
13,O=c1[nH]c2cc(Cl)cc(Cl)c2[nH]c1=O,active: 1e-08 M
14,O=C(c1cnn2c(C(F)F)cc(C3CC3)nc12)N1CCOCC1,inconclusive: 4.1e-09 M
15,CCn1c(C)csc1=NC(=O)c1ccccc1O,inconclusive: 5.3e-09 M
16,CC1(C)CC(=O)C=C(N2CCNCC2)C1,inconclusive: 1.2e-09 M
17,Cc1ccc2cc(C)c(N3CCN(c4ccccn4)CC3)nc2c1,inconclusive: 2.9e-09 M
18,O=C(NCc1csc(-c2ccccc2)n1)c1ccco1,inconclusive: 1.9e-09 M
19,Cc1ccc(-c2cc(C(=O)N3CCOCC3)c3ccccc3n2)cc1,inconclusive: 4.2e-09 M
20,O=C(CN1CCOCC1)NCc1ccccc1,inconclusive: 3.9e-09 M
21,CC(O)CNc1nc2c(c(=O)n(C)c(=O)n2C)n1C/C=C/c1ccccc1 (stereo not drawn),active: 1.7e-08 M
22,Cc1ccc(C(=O)OCC(=O)Nc2ccccc2)cc1NC(=O)c1ccco1,inactive
23,NS(=O)(=O)c1ccc(N=Nc2cc3ccccc3c(C(=O)O)c2O)cc1,inactive
24,Cc1ccc(S(=O)(=O)N(c2ccccc2)C2CCS(=O)(=O)C2)cc1 (stereo not drawn),inactive

# 4 of the compounds above, with bars between the fields:
row | SMILES | max dye-equivalent concentration
16 | CC1(C)CC(=O)C=C(N2CCNCC2)C1 | inconclusive: 1.2e-09 M
17 | Cc1ccc2cc(C)c(N3CCN(c4ccccn4)CC3)nc2c1 | inconclusive: 2.9e-09 M
18 | O=C(NCc1csc(-c2ccccc2)n1)c1ccco1 | inconclusive: 1.9e-09 M
19 | Cc1ccc(-c2cc(C(=O)N3CCOCC3)c3ccccc3n2)cc1 | inconclusive: 4.2e-09 M

# Following part

row,SMILES,max dye-equivalent concentration
1,Cn1c2ccccc2c2ncn(Cc3ccco3)c(=O)c21,inconclusive: 2.9e-09 M
2,CCOc1cc(C2C3=C(CCCC3=O)N(C)C3=C2C(=O)CCC3)cc(Cl)c1O,active: 1.3e-08 M
3,CCCc1cc(=O)[nH]c(SCC(=O)N2CCN(c3ccc(F)cc3)CC2)n1,inactive
4,CCn1cnc2sc(-c3ccccc3)cc2c1=O,inconclusive: 2e-09 M
5,OC(COCC1COc2ccccc2O1)CN1CCN(c2ccccn2)CC1 (stereo not drawn),inconclusive: 2.9e-09 M
6,CCOc1ccc(-n2c(=S)sc3c(=O)[nH]c(SCC(=O)NCc4ccco4)nc32)cc1,inactive
7,Cn1cccc1CNC(=O)Nc1ccc(Cl)cc1,inactive
8,COc1cccc(C(=O)N(Cc2nc(-c3cccc(C)c3)no2)C(C)C)c1OC,inactive
9,CCCn1c(SCc2cc(=O)[nH]c3ccccc23)nc2c1c(=O)n(C)c(=O)n2C,inactive
10,COc1ccc(C)cc1NC(=O)CSc1nnc(-c2ccc(Br)cc2)o1,inactive
11,O=C(NC1CC2CCCC(C1)N2C(=O)N1CCCCC1)C1CCCCC1 (stereo not drawn),inactive
12,Cn1c(=O)oc2cc(C(=O)c3ccccc3)ccc21,inconclusive: 9.9e-09 M
13,COc1ccc2cc([C@H](C)C(=O)O)ccc2c1,inconclusive: 4.4e-09 M and inconclusive: 4.3e-09 M
14,O=C(Nc1ccc(F)cc1)N1CCn2c(nc3ccccc32)C1,inconclusive: 2e-09 M
15,Cc1cccc(-c2cc3nc4c(c(N5CCCC(O)C5)n3n2)CCC4)c1 (stereo not drawn),inconclusive: 5.5e-09 M
16,Cc1ncoc1C(=O)Nc1ccccc1-c1ccccc1,inconclusive: 2.7e-09 M
17,Nc1ccn([C@H]2O[C@H](CO)[C@@H]3[O][Sn]([c]4ccccc4)([c]4ccccc4)[O][C@H]32)c(=O)n1,inactive
18,CN1C(=O)NC(c2cccc(O)c2)C(C(=O)c2cccs2)C1(O)C(F)(F)F (stereo not drawn),inconclusive: 3.1e-09 M
19,O=C(c1csnn1)N1CCC[C@@]2(CCN(c3cccc(-c4ccccc4)c3)C2)C1,inactive
20,COc1nc(-c2ccccc2)ccc1-c1noc(-c2ccccc2F)n1,active: 1.7e-08 M
21,COc1cc(C2C(C(=O)c3ccc(C)o3)=C(O)C(=O)N2CCc2ccccc2)ccc1O (stereo not drawn),inconclusive: 3.1e-09 M
